# PubChem BioAssay AID652054 (National Center for Advancing Translational Sciences (NCATS), 2013)
# By UniProt entry, the sequences of proteins in these tests, tags left out.
# UniProt P35462, whole entry, looked up: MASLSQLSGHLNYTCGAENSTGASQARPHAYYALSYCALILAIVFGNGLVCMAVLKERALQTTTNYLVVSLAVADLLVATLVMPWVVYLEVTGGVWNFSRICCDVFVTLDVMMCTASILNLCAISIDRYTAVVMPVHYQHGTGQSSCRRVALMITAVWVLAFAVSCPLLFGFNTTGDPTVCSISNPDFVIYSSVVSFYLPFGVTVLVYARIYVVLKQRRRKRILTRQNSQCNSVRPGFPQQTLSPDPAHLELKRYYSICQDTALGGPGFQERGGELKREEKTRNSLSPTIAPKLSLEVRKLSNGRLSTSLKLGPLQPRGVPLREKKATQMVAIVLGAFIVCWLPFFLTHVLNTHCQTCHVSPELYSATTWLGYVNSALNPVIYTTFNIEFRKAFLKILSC
# “And” between values parts separate entries of the source, which are not always exact repeats. Equal values may be shown once. Screen size: about 360,000 compounds; about 9,100 (2.5%) were called active. Inconclusive means that the source gave no clear call. Such entries were picked first, then a sample of the others. No stated cut-off is given here; in the data, active means max response below about -50%; inconclusive means no clear call, values can overlap the other calls; inactive means above that.
# Molecular target: D(3) dopamine receptor (Homo sapiens) (UniProt P35462)
# Experiment: qHTS of D3 Dopamine Receptor Antagonist: qHTS
# Conditions: D3R cells, DiscoveRx beta-arrestin luminescence, antagonist mode; stronger effect = lower value
# In short: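 Cells plated overnight at 1500 cells/well, then exposed to library compounds with dopamine controls for 90 minutes at 37 degrees C. DiscoveRx reagent added for 30–60 minutes at room temperature; luminescence read, quantitative HTS format.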
# On the % scale 0 is the no-effect control and ±100 the full control effect.
row,Compound,"max response, negative = inhibition"
1,COc1ccc(Br)cc1CN1CCN(c2ncccn2)CC1,inconclusive: -44.4%
2,CC12CC(NC(=O)N1c1cccc(C(=O)NCc3ccc4c(c3)OCO4)c1)c1cc(Cl)ccc1O2 (stereo unspecified),inconclusive: -30.4%
3,Cc1ccc(C(C)C)cc1OCCN1CCCC1,inconclusive: -46%
4,COc1ccc(OCCSc2nnc(C)n2-c2ccccc2)cc1,inconclusive: -33.9%
5,CCCOc1ccccc1C1NC(=O)NC(C)=C1C(=O)OCCOCC (stereo unspecified),inconclusive: -37.6%
6,O=C(Nc1nc2ccc(S(=O)(=O)N3CCCC3)cc2s1)c1ccccn1,inconclusive: -48.9%
7,O=C(CC1Nc2ccccc2NC1=O)NCC1COc2ccccc2O1 (stereo unspecified),inconclusive: -34.8%
8,CC1CN(CCCCOc2ccc(C(C)C)cc2)CC(C)O1 (stereo unspecified),active: -63.3%
9,O=C1NC[C@@H](CCCCN2CCN(CCc3ccc(O)cc3)C(=O)C2=O)N(CCc2ccc(O)cc2)C1=O,inconclusive: -36%
10,c1cnc2c(OCc3cn4cccnc4n3)cccc2c1,inconclusive: -40.4%
11,O=c1c2c([nH]c3ccccc13)CCCCCC2,inactive: 8.97%
12,O=C(Nc1cccc2nsnc12)c1cccs1,inactive: 8.74% and inactive: -17.4%
13,O=C(O)CCN1C(=O)C(=C2CCCCCC2)SC1=S,inconclusive: -30.5%
14,COc1ccc(Br)cc1S(=O)(=O)N(CC(=O)N1CCOCC1)c1ccccc1,active: -120%
15,CN(C)C(=O)c1cccc(-c2cccc(-c3nc(C(=O)NCc4ccccc4)cc4c3[C@@H](CCO)N(S(=O)C(C)(C)C)C4)c2)c1 (stereo partly specified),inactive: 61.7%
16,CC(=O)N1CCN(c2nc(CC(C)C)c3c(c2C#N)CCC3)CC1,inconclusive: -34.1%
17,Cc1ccc(C(=O)NC(=S)NNC(=O)COc2ccccc2C)cc1,inconclusive: -30.1%
18,Cc1occc1-c1nnc(SCC(=O)Nc2nc3ccccc3s2)o1,active: -103%
19,COCCN(C(=O)C1CCN(C(=O)c2ccccc2C)CC1)c1c(N)n(CC(C)C)c(=O)[nH]c1=O,inactive: 7.26%
20,O=C(C[C@H]1C(=O)N(C2CCCCC2)C[C@@H]1c1ccccc1)Nc1ccc(Br)cc1,inconclusive: -33.4%
21,OCCN1CCN(CC(O)COc2ccc3c(c2)OCO3)CC1 (stereo unspecified),inconclusive: -39.6%
22,CC(C)CNC(=O)c1cccc(C(=O)NCC(C)C)c1,inconclusive: -30.6%

row,Compound,"max response, negative = inhibition"
1,O=S(Cc1ccc(Br)cc1)Cc1nnc(SCc2c(F)cccc2Cl)n1-c1ccccc1 (stereo unspecified),inconclusive: -41.9%
3,CCCCn1c(SCC(=O)Nc2cc(C)on2)nc2ccccc2c1=O,inactive: -9.7%
4,CCN(CC)CCNC(=O)c1ccc(CS(=O)(=O)c2ccc(Br)cc2)o1,inconclusive: -31.2%
5,CCCCN(C=O)c1c(CC)nc2c(OCc3cc(Cl)cc(Cl)c3)cccn12,inconclusive: -49.7%
6,O=C(NCSc1ccnc(SCNC(=O)c2ccccc2)n1)c1ccccc1,inconclusive: -32.9%
7,CCN(CC)CCn1c(NC(=O)c2ccc(Cl)cc2)nc2ccccc21,inconclusive: -31%
8,Cn1c(SCC(=O)N/N=C/C=C/c2ccco2)nc2ccccc21,inactive: 1.05%
9,Cc1ccc(-c2csc(C3C(N)=NC(S)=C(C#N)C34CCCCC4)n2)cc1 (stereo unspecified),active: -71.8%
10,Cc1ccc(N2C(=O)/C(=C\c3ccc(C(C)C)cc3)N=C2SC2CCOC2=O)cc1 (stereo unspecified),inconclusive: -48.6%
11,CCCCNC(=S)NCc1ccc2c(c1)cc(C)n2C,inconclusive: -33.1%
12,O=C(CCC1CCCCC1)NCCN1C2=NC[C@@H](Cc3ccccc3)N2C[C@H]1Cc1ccc(O)cc1,inconclusive: -32%
13,CCC(=O)c1ccc(OCC(O)CN2CCN(c3ccc(F)cc3)CC2)cc1 (stereo unspecified),inactive: -20.2%
14,CC(C)=CCC[C@](C)(O)C1CC[C@]2(C)C1[C@H](O)CC1[C@@]3(C)CC[C@H](O[C@@H]4O[C@H](CO)[C@@H](O)[C@H](O)[C@H]4O[C@@H]4O[C@H](CO)[C@@H](O)[C@H](O)[C@H]4O)C(C)(C)C3CC[C@]12C (stereo partly specified),active: -61.5%
15,CC1CCCN(CCCNC(=O)c2cc3c(s2)-c2ccccc2OC3)C1 (stereo unspecified),inconclusive: -47%
16,O=C(CN1C(=O)c2ccccc2S1(=O)=O)NCCSCc1ccco1,inconclusive: -31%
17,Cc1cc(NC(=O)CCCN2C(=O)c3cccnc3C2=O)no1,inconclusive: -37.2%
18,CCCNC(=S)NC1CC2CCCC(C1)N2Cc1ccc(F)cc1 (stereo unspecified),active: -101%
19,O=C(Nc1ccc(Cl)cn1)c1ccc([N+](=O)[O-])o1,inactive: -3.75%
20,COc1ccc(-c2cc(C(F)(F)F)nc(S(C)(=O)=O)n2)cc1,active: -75.1%
21,Cc1ccc(S(=O)(=O)NC(CC(C)C)C(=O)NCC(c2ccco2)N2CCCCC2)cc1 (stereo unspecified),active: -78.9%
22,Cc1ccc(C)c(-n2c(C)cc(/C=N/NC(=O)c3c(C)nc4cc(C)ccn34)c2C)c1,inconclusive: -33.5%

row,Compound,"max response, negative = inhibition"
1,CC(=O)c1cccc(NS(=O)(=O)N2CCCCC2)c1,inconclusive: -43.7%
2,CCC(C(=O)NCc1ccco1)n1nc(C)c2c(C)n(-c3ccc(C)cc3)nc2c1=O (stereo unspecified),inactive: 0.204%
3,COC(=O)CN1C(=S)N(Cc2ccccc2)C(=O)C1CC(=O)Nc1ccc(Br)cc1 (stereo unspecified),inconclusive: -37.8%
4,O=C(O)c1ccc(CS(=O)(=O)Cc2ccccc2F)o1,inconclusive: -33.3%
5,CCOc1ccc(Nc2oc(-c3ccco3)nc2C#N)cc1,inconclusive: -42%
6,CN(C)CC(O)COc1ccc(C(C)(C)c2ccc(OCC(O)CN(C)C)cc2)cc1 (stereo unspecified),inconclusive: -49.8%
7,COc1ccc(-n2nnnc2CNC(=O)C(=O)c2c[nH]c3ccccc23)cc1,inconclusive: -35.7%
8,CCCC(=O)C1=C(c2ccccc2)C(C#N)(C#N)C(C#N)=C1N,inconclusive: -32.3%
9,CCc1c(C(=O)Nc2ccccc2)c(C)[nH]c(=S)c1C#N,inconclusive: -39.3%
10,c1ccc(CN2CCC3CC2c2cc(N4CCCCC4)ccc23)cc1 (stereo unspecified),inconclusive: -43.1%
11,CS(=O)(=O)N(CC(=O)N1CCN(Cc2ccccc2)CC1)c1ccccc1F,inactive: -22.2%
12,O=C(O)C1CC=C(Cl)CC1C(=O)NC1CCCCC1 (stereo unspecified),inactive: 29.2%
13,CCCn1cc(CN2CCCC(C(=O)c3cccc(OC(C)C)c3)C2)c(C)n1 (stereo unspecified),inactive: -13.3%
14,O=C(NCc1ccccn1)c1cccc(S(=O)(=O)N2CCc3ccccc32)c1,inactive: -3.44%
15,CN(C)c1nc(OCCOC(=O)COc2ccc(Cl)cc2Cl)nc(N(C)C)n1,inconclusive: -30.8%
16,O=C1/C(=C\c2ccc([N+](=O)[O-])cc2)CS(=O)(=O)C/C1=C/c1ccc([N+](=O)[O-])cc1,inconclusive: -30.6%
17,O=C(O)C1CC=CCC1C(=O)NCc1ccc(Cl)c(Cl)c1 (stereo unspecified),inconclusive: -35.8%
18,CC(C)(C)C(=O)N1CCN(S(=O)(=O)c2ccc3c(c2)OCCCO3)CC1,inactive: 2.1%
19,CCCCc1nn(-c2cc(Cl)ccc2OC)c2c1C(=O)CC(C)(C)C2,inactive: -5.5%
20,O=C(CCS(=O)(=O)Cc1ccccc1)Nc1ccc2c(c1)OCCO2,inconclusive: -44.2%
21,O=C(NCc1ccc(Cl)cc1)c1ccc(-c2ccccc2C(F)(F)F)o1,inconclusive: -45.4%
22,O=C(Nc1ccc(S(=O)(=O)N2CCOCC2)cc1)c1ccc(F)cc1,inactive: 3.24%

# Filtered by structure, the compounds so far with an aryl thioether with sulfur outside any ring (6)
row,Compound,"max response, negative = inhibition"
4,COc1ccc(OCCSc2nnc(C)n2-c2ccccc2)cc1,inconclusive: -33.9%
18,Cc1occc1-c1nnc(SCC(=O)Nc2nc3ccccc3s2)o1,active: -103%
1,O=S(Cc1ccc(Br)cc1)Cc1nnc(SCc2c(F)cccc2Cl)n1-c1ccccc1 (stereo unspecified),inconclusive: -41.9%
3,CCCCn1c(SCC(=O)Nc2cc(C)on2)nc2ccccc2c1=O,inactive: -9.7%
6,O=C(NCSc1ccnc(SCNC(=O)c2ccccc2)n1)c1ccccc1,inconclusive: -32.9%
8,Cn1c(SCC(=O)N/N=C/C=C/c2ccco2)nc2ccccc21,inactive: 1.05%

# (further entries)

row,Compound,"max response, negative = inhibition"
1,COc1cc(Cl)c(C)cc1NC(=O)[C@@H]1CCCN1C(=O)c1cccs1,inconclusive: -48.1%
2,COc1ccc(Cl)cc1N1Cc2ccccc2C1,inconclusive: -47.8%
3,S=C(c1ccc(N2CCCC2)c(Br)c1)N1CCCCC1,inconclusive: -46.9%
4,COc1ccc(CN2CCN(Cc3ccccc3C(F)(F)F)CC2)c(OC)c1,inconclusive: -36.3%
5,COC(=O)c1cc(S(=O)(=O)N2CCN(C3CCCCC3)CC2)c[nH]1,inconclusive: -44.8%
6,O=C(O)C(Cc1ccc(Cl)cc1)Sc1nc2ccccc2[nH]1 (stereo unspecified),inactive: -1.36%
7,CC1CCN(CCC(=O)Nc2ccc(F)c(F)c2)CC1,active: -50.9%
8,O=c1cnc2cc([N+](=O)[O-])ccc2[nH]1,inconclusive: -35.6%
9,OCC1(Cc2ccccc2)CCCN(Cc2cnn(-c3ccccc3)c2)C1 (stereo unspecified),inconclusive: -32.3%
10,O=C(C1=C[C@H](c2ccc(C(F)(F)F)cc2)C[C@H](OCc2ccc(CO)cc2)O1)N1CCCCCCC1,active: -72.3%
11,CSc1ccc(C2=CC(=O)C[C@H](c3ccc(F)cc3)C2)cc1,inconclusive: -35%
12,Cc1ccc(S(=O)(=O)c2c(C(=O)c3ccccc3)cnc3cc4c(cc23)OCCO4)cc1,inactive: -0.914%
13,O=C(Nc1cccc(Cl)c1)N(CCN1CCOCC1)Cc1cccc(Cl)c1,inconclusive: -31.9%
14,CCC(=O)Nc1ccc2c(c1)ncn2-c1ccccc1OC,inconclusive: -44.9%
15,c1ccc(N2N=C(c3cccs3)CC2c2ccco2)cc1 (stereo unspecified),inconclusive: -32.5%
16,CCN1CCN(Cc2ccc(NC(=O)Nc3ccc(OC)cc3)cc2)CC1,inconclusive: -46.4%
17,Cc1ccc(OCC(=O)Nc2ccc3c(c2)C(=O)NC3=O)cc1,inconclusive: -34.7%
18,COc1cc(C2NCC(c3ccc(Cl)cc3Cl)c3c2[nH]c2ccccc32)cc(OC)c1OC (stereo unspecified),inactive: 1.46%
19,CCn1c2ccccc2c2cc(N)ccc21,inconclusive: -31.2%
20,COc1cccc(CC2(CO)CCN(CC3=CC[C@H]4C[C@@H]3C4(C)C)CC2)c1,inactive: -4.93%
